Results taken from PubChem BioAssay AID1508600 (Functional Genomics Laboratory (NCATS/FGL), 2020).
The campaign covered roughly 53,000 sequences. About 3,700 (7%) were called active.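 The calls were made as follows: active = gene knockdowns whose robust z-score for IL-1 alpha signal is at least 2 or at most -2, so actives lie on both sides; inactive = the rest.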 The list shows a part of the results.

Experiment: Components of the Cytosolic LPS Sensing Pathway: Gene Identification via Genome-wide siRNA Screen;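 also: robust z of the log signal after scaling to non-targeting control siRNA wells of the plate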
Conditions: RAW264.7 macrophages, IL-1a HTRF, actives lie on both sides, screened at 100 nM (by protocol), cells primed 5 h with Pam3CSK4 first
In short: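 RAW264.7; siRNA 100 nM final, RNAiMAX, 48h 37 degrees C; Pam3CSK4 5 h; LipidA + TransIT-TKO 24 h; IL-1a HTRF; CellTiter-Glo viability; robust z vs negative-control median.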

Sequence	z-score
GGACCUCAAGGCACUAAUATT against Car7	inactive: 0.385
GAAAGAACUGUGGCUUCCCTT against Tff2	inactive: 1.35
CGCAGAAACACAGUCCACATT against Cntfr	inactive: 0.714
CCCUCACAGCGACUUUAACTT against Prr15l	inactive: 0.0331
CCUUCUCCAUGUCAGAUCUTT against Col5a2	inactive: 0.23
GGAUCCAUUGAGCUCUGUCTT against Poln	inactive: -1.37
GGUGCAAAUGUUCUCAUCUTT against Mfsd4b1	active: 2.11
GGUGUGAGUGUCGGAAUCUTT against Islr2	inactive: 0.138
GGAAUUUGGAAAGAUCUAUTT against Gm4876	inactive: 0.111
GGCCUGUUCUGAAGAACUATT against Gp2	inactive: -0.115
GCAUCCUUCUGAGUUGAUGTT against Tollip	inactive: -1.02
GGAGAGAGCUCAGGAAUGATT against Rpp25	inactive: 0.544
GGGAACAAACCUUGAUUCUTT against Adam24	active: 3.49
GCUGAUUGAACUGAAUGGATT against Slc22a21	inactive: -1.27
CGGAGAAGUCACCAAUACUTT against Tll1	inactive: -0.0687
GGUUCUGAACACAUUUCCATT against Cyp2d13	inactive: -1.07
GGUACUAACACCACAAAAATT against Cep83	inactive: -0.757
GGAACGAUGAGGAAAUCUCTT against Clcc1	inactive: 0.537
GGAGAACCCAUUCAAGUCCTT against Zfp280b	inactive: -0.699
GGCUUCCAGAUGGACGAGATT against Prkag3	inactive: -1.35
GGAUGAAGAUGAAAAAGAUTT against Hoxc9	inactive: -0.247
CCUCUAUAAAUAGCAUAGUTT against Olfr860	inactive: -1.06

A second format for part of the listing above.
Sequence | z-score
GGCCUGUUCUGAAGAACUATT against Gp2 | inactive: -0.115
GCAUCCUUCUGAGUUGAUGTT against Tollip | inactive: -1.02
GGAGAGAGCUCAGGAAUGATT against Rpp25 | inactive: 0.544
GGGAACAAACCUUGAUUCUTT against Adam24 | active: 3.49
GCUGAUUGAACUGAAUGGATT against Slc22a21 | inactive: -1.27
CGGAGAAGUCACCAAUACUTT against Tll1 | inactive: -0.0687

(list continues)

Sequence	z-score
GCCUAUCUACUGACCUUUGTT against Styxl1	inactive: 0.383
GGAAGGAAGAGAAUAAGCGTT against Tent2	inactive: 0.431
CCUUUUGAUAGUGAUGGUCTT against Olfr735	inactive: -0.673
GGUGAACAUUGACCACUUCTT against Rgs5	inactive: -1.47
GCUUCGGCCUCAGUAUUCATT against Pigb	inactive: 0.0355
GGAAAAACUUGACUUACAATT against Bhlha15	inactive: 1.97
GGCUCCGUGAUGCUUCAAGTT against Selenbp2	inactive: 1.15
GGCCUAUAGGUUGGGCUCUTT against Tonsl	active: -2.57
GGUCCAGGUGACAAUAAAUTT against Tmem143	inactive: -1.78
GGUUGAUAGGCCAAAUUGUTT against Tuba1a	inactive: 0.0575
GCCUCUAACAAAACUAGGCTT against Rpl34	inactive: 0.624
GCUUUAAACUGAGUGAUAATT against Zfp451	inactive: -0.564
GGGAAUCUAAAUUAUUCUGTT against Mfsd1	inactive: -0.202
GCAUGUAGCCUGGCCUUCUTT against Zfp458	inactive: -0.591
GGUUUCGUCUGUUCCUUAATT against Dxo	inactive: 1.45
GGCCUCUAUCUUCCAACAATT against Tent4a	active: -2.06
GGCUUUAGUUAGAACGGGUTT against Pttg1	inactive: 1.46
GGUGAUUUCACUGGGUAAGTT against Olfr632	inactive: 1.72
GGAGUCCUACGUCAAAGAATT against Pigz	inactive: -0.251
GCCUGUCUGCCACUUACAATT against St8sia3	inactive: 1.22
CCUGGAUCAUAUAAUAGAGTT against Dffb	inactive: -0.237
GCAUUUUAGACUCAGAAUCTT against Car3	inactive: -0.047

Rewritten in markdown: entries from further up.

| Sequence | z-score |
| --- | --- |
| GGUUGAUAGGCCAAAUUGUTT against Tuba1a | inactive: 0.0575 |
| GCCUCUAACAAAACUAGGCTT against Rpl34 | inactive: 0.624 |
| GCUUUAAACUGAGUGAUAATT against Zfp451 | inactive: -0.564 |

Carrying on.

Sequence	z-score
GGAGAAGGUGACUUAAUAGTT against 9430077A04Rik	inactive: 0.76
GCUGUACGUAGAUUCCAGATT against Mmp21	inactive: 1.48
GGCAGUAAUAGGAGACCAUTT against Ces1d	active: 2.76
GGUUGAAAACUAAGAACUCTT against Pglyrp2	inactive: 0.791
GGCGUGGUUUCUGUCUGUUTT against Ip6k1	inactive: 0.122
CCAUACACAGUAUAAUCAATT against Galntl6	inactive: 1.64
GGUGAACAGAAGGACAGAUTT against Gm4736	inactive: 0.479
GGAAUUGAGUGGUUGUAUCTT against 4933427D14Rik	inactive: -0.264
GCACUACCACUGUCAGCAATT against Ldb3	inactive: -0.734
GCCCUACUGUCAAAUAGGATT against Pxmp4	inactive: 0.678
GGCAACACUUAAGCCUGAGTT against Proser3	inactive: -1.53
GGCAGAUCCAAGGCUAUUATT against Olfr901	inactive: -0.119
CCCAACAAAAUGCAUCAAUTT against Nrg3	inactive: 0.211
GGAAGAUUAUAAAAACAGGTT against Togaram1	inactive: -0.57
GGUCAAGACAAUCUGAUCATT against St3gal3	inactive: -1.52
GGAGAAGCUAUGGUAUUACTT against Apc2	inactive: -0.798
GGAAUUUUAUCCUGUAUGCTT against Tmem38b	inactive: 0.251
CCUUCAGGAGAAUAAUUGUTT against Prkar2b	inactive: -0.522
GGAGUACGUGAUUGCUCUGTT against Rcvrn	active: -2.45
GCUCCAGGCAUUGAGAAUGTT against Hcfc1r1	inactive: 1.98
GCAGGACUAUGUCAACCUATT against Atp6v0d2	inactive: 1.44
CCUAUCCUUCUCUGACAUCTT against Olfr371	inactive: -0.25

Sequence	z-score
CCGUAUUUAUAUUGGUUACTT against Phlda2	inactive: 0.78
CCUCGAAUGCAGACGUACGTT against Sdhb	inactive: 1.67
CCUUGUAGCUCUGAGGAUATT against Teddm3	inactive: -0.529
GGGAGGGUACAGAAAUUUATT against Spz1	inactive: 0.902
CCGCCAGACCUUCAUUACCTT against Chia1	inactive: -0.515
GCGAUUCAGAGACCUAUGGTT against Aven	active: -2.22
GGAGGAUCAGAGAACAGAGTT against Alms1	inactive: -0.345
CCUGCAAUCAAAACAUCAATT against Vmn1r10	inactive: 1.13
GGAGAUGAAAAGAGAAAUCTT against Cct6b	active: 2.41
GGAGAAGUUUGGCAAGCCCTT against Hdgf	inactive: -0.802
GGAAUGUUCCUUCGAGCAGTT against Ccdc28b	inactive: -0.197
GGUGGCCCUUAAACGGAAGTT against Spata16	inactive: 0.87
GGAAGGACAGAAGAGGCCATT against Slc22a13	inactive: -1.77
GGAUACCACCAUCAAUGAGTT against Atp6v1f	inactive: -0.273
GGCAAAUGAGACCUCAGAATT against Cpxm1	inactive: -1.06
GGAACAUCUUCAAAGAAGATT against Minar1	inactive: -0.963
GGCACAAUAAAAUAUAAGGTT against Srprb	inactive: 0.317
GCCAUUUGAGUAUGUUGCATT against Ccdc120	inactive: -0.606
GCACCAGCCCUAUAAACUGTT against Frmd8	inactive: 1.65
GGCUAAAAAUCUCAUAGAGTT against Zpbp	inactive: -0.548
GCCAUGUAGCACGUAACAGTT against Haus6	inactive: -0.368
CCAAUAAGUACAGCACCUUTT against C1ql4	inactive: -0.15

Sequence	z-score
GGUAUUUAGGUUGAUAACATT against Kbtbd8	inactive: -0.206
GGCCUACAACAACCUCAUUTT against Crat	inactive: -1.69
CCUGGUACUCCAGAAUGUUTT against Sh3tc1	inactive: -1.08
GGAACUGGAGAUGCACAGCTT against Mtcl1	inactive: 1.2
GCAUUUCCUUAACACUCCCTT against Msmb	inactive: -0.614
CCCUUGGCCAAGGAACAUUTT against 4921509C19Rik	inactive: -0.118
GGCUCACCCUAACUUUCCATT against Akr1c18	inactive: -0.737
GCUCGUGUCAGAACCGAUGTT against Rwdd3	active: 2.39
CCACACGUUCCAUUUCUCGTT against Hilpda	active: -2.65
GGGACAGAGCCGAAAGAGUTT against Mrpl33	inactive: -1.39
GGCAAAAUAAAGCAGUGGUTT against Mrps25	inactive: -0.598
GGCACAAUUGAGGAGCGUATT against Ino80	inactive: -1.27
GGAAGAUCCAUUUAAUGUATT against Eps15	inactive: 1.14
GGCUGAUGGAAGAAUAUGATT against Actn2	active: -2.2
GCAUACGAAGGACAACCUGTT against Bspry	inactive: 1.81
GGAUAAUGUCUCCUGCUUGTT against Plk3	inactive: -1.37
GGACAGUUCCUUCAGCACCTT against Bmf	inactive: -0.0699
GGUUUUCAAGUUUUAGUGUTT against Gsta2	inactive: 1.15
GGUAUUUUUUACAGGACCATT against Tmem115	inactive: 1.13
